The supplement of paper PMC3334620
Whole data set: some 33,000 sequences, median “E-score (-0.5 to 0.5)” near -0.015, cut for the highest 2% near 0.3. The list shows a part of the results.

The sequences below were run against T1, Abf1 (UniProt P14164) (assay: PBM E-score (8-mer binding enrichment) (E-score (-0.5 to 0.5)); higher = stronger / more preferred TF binding). Settings: protein concentration: 200 nM; construct: GST-full length.
T1 sequence: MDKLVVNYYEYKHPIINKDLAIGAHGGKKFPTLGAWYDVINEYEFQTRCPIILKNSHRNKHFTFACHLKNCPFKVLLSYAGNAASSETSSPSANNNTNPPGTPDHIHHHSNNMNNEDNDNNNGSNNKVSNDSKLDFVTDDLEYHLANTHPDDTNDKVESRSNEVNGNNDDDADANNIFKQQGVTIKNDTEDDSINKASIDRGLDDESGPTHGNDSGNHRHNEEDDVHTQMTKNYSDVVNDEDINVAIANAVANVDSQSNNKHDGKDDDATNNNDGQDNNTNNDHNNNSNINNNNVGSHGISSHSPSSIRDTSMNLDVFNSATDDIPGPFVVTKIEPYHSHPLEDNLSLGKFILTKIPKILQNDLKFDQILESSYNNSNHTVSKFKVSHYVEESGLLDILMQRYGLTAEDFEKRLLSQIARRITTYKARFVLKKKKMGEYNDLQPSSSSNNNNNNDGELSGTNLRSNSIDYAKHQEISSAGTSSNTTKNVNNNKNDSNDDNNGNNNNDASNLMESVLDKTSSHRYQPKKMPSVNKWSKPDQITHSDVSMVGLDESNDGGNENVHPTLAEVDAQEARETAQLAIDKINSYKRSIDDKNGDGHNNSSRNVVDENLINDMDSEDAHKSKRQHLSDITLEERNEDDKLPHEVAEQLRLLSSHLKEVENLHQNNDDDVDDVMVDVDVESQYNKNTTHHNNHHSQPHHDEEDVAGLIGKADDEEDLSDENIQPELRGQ
How it was run: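 Each ungapped eight-base word and its reverse complement, pooled, received an E-score from the Universal PBM Analysis Suite. Underlying scans, normalised with masliner, recorded fluorescent anti-GST bound to GST-tagged yeast transcription factors. These were applied at about 100-200 nM to universal all-10-mer Agilent arrays double-stranded by primer extension.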

| Sequence | PBM E-score |
| --- | --- |
| CCTCCGAA | -0.0401 |
| GCACTTCC | -0.257 |
| AAAGGCGG | -0.0153 |
| TAGGCAAA | -0.0493 |
| AATGAGGC | -0.0217 |
| GCAATCAC | -0.0347 |
| ATTCCCAC | -0.00547 |
| GCCCGCAC | -0.155 |
| ACGATATG | 0.304 |
| ATGTACGC | 0.027 |
| ACATTTAA | 0.182 |
| CTCTTAAC | 0.17 |
| ACGAGAAC | 0.185 |
| CTGACTCC | -0.131 |
| GCACGGTA | 0.206 |
| AAACCCTC | -0.168 |
| TGTATAAA | 0.116 |
| ACAGAACC | -0.069 |
| ACCTGATC | 0.00546 |
| TATCAAGA | 0.057 |
| AACGCTTG | -0.239 |
| CGAGAGCG | -0.0971 |
| AACGATGA | 0.243 |
| ACCCATAT | 0.0238 |

| Sequence | PBM E-score |
| --- | --- |
| GTTTACGA | 0.253 |
| ACTCGGAG | -0.00102 |
| CCGCTCCG | -0.24 |
| CAGGCGCG | -0.212 |
| TACTATAA | 0.101 |
| CAGCAACC | -0.0964 |
| AACCCATC | -0.096 |
| CCCGTAAG | 0.095 |
| ACCATTTC | -0.0361 |
| GTAGTGTA | 0.12 |
| CCTCTTTA | -0.116 |
| ATGGACAT | 0.133 |
| GCTAAAGC | -0.16 |
| CCTAGATC | 0.0796 |
| ATTATTGG | -0.015 |
| CGTACAGC | -0.0515 |
| GCGAGCCA | -0.0175 |
| CAGATCGG | -0.205 |
| ACTCTGCA | -0.0803 |
| ATCACCTG | 0.191 |
| CGCCACCC | -0.22 |
| GGCAAGAC | -0.168 |
| TAAGTGAA | 0.128 |
| GACCCAAA | 0.00458 |

| Sequence | PBM E-score |
| --- | --- |
| ATGCACTA | 0.176 |
| GTTATTCA | 0.198 |
| CCAATTGA | -0.21 |
| CAAAATAC | 0.0138 |
| AGCGATAT | 0.352 |
| GCCCTCCC | -0.286 |
| CCGCTTGA | -0.0188 |
| TAGGGCAA | -0.14 |
| CAGTCATA | -0.0487 |
| ACCCGACC | -0.103 |
| GATCGACC | -0.0655 |
| ATAATGTA | 0.168 |
| CAGTGTTA | -0.163 |
| GCGTGGCA | -0.0717 |
| AACAGGCG | -0.00189 |
| CATGGACA | -0.109 |
| CAGCTATG | -0.133 |
| CTACAAAG | -0.0121 |
| CTACCCAA | -0.00474 |
| GTCGCGCA | 0.0405 |
| CATGTCCA | 0.21 |
| CATTCAGC | 0.0488 |
| AAGGGCAA | -0.194 |
| ATACCCCG | -0.19 |

Rewritten field by field: entries from further up.
GCAATCAC
  PBM E-score: -0.0347
ATTCCCAC
  PBM E-score: -0.00547

The results go on.

| Sequence | PBM E-score |
| --- | --- |
| GATCAGAA | -0.0694 |
| AGTGACAG | 0.292 |
| ACTCTACG | 0.0491 |
| ACAGCGTA | 0.0384 |
| GAAGGACA | 0.208 |
| AGTTTCTC | -0.0331 |
| AAATGTAA | 0.247 |
| GGAAACCA | -0.245 |
| ACTTGTCG | -0.0268 |
| CAATCAAC | 0.145 |
| GGCCTGAA | -0.358 |
| AAGTCGCG | 0.0729 |
| AACGAGCG | 0.13 |
| AATCTGGC | -0.0204 |
| GATGCTCA | -0.129 |
| ATTCTGCG | 0.0746 |
| CTACCGGA | -0.217 |
| TCGGTTCA | -0.252 |
| CACCTATC | 0.111 |
| CACCTGAA | 0.0241 |
| CTGCTTTA | 0.174 |
| GGACAGTA | -0.00085 |

A section taken from the entries so far, for reference:

| Sequence | PBM E-score |
| --- | --- |
| GATCAGAA | -0.0694 |
| AGTGACAG | 0.292 |
| ACTCTACG | 0.0491 |
